No constants are given. Whether binding was seen depends on the method and setting. Binding seen in cells or lysates may run through a third protein. Here binding means that the protein was enriched with, or labelled near, the bait; the list need not be complete. Where a sequence is shown, tags or fusion partners need not be part of it.
B1: ectodermal-neural cortex 1 (ENC1) (protein, UniProt O14682 1-589)
chain: MSVSVHENRKSRASSGSINIYLFHKSSYADSVLTHLNLLRQQRLFTDVLLHAGNRTFPCHRAVLAACSRYFEAMFSGGLKESQDSEVNFDNSIHPEVLELLLDYAYSSRVIINEENAESLLEAGDMLEFQDIRDACAEFLEKNLHPTNCLGMLLLSDAHQCTKLYELSWRMCLSNFQTIRKNEDFLQLPQDMVVQLLSSEELETEDERLVYESAINWISYDLKKRYCYLPELLQTVRLALLPAIYLMENVAMEELITKQRKSKEIVEEAIRCKLKILQNDGVVTSLCARPRKTGHALFLLGGQTFMCDKLYLVDQKAKEIIPKADIPSPRKEFSACAIGCKVYITGGRGSENGVSKDVWVYDTLHEEWSKAAPMLVARFGHGSAELKHCLYVVGGHTAATGCLPASPSVSLKQVEHYDPTINKWTMVAPLREGVSNAAVVSAKLKLFAFGGTSVSHDKLPKVQCYDQCENRWTVPATCPQPWRYTAAAVLGNQIFIMGGDTEFSACSAYKFNSETYQWTKVGDVTAKRMSCHAVASGNKLYVVGGYFGIQRCKTLDCYDPTLDVWNSITTVPYSLIPTAFVSTWKHLPS
B2: SPRR1B (protein, UniProt P22528 1-89)
chain: MSSQQQKQPCTPPPQLQQQQVKQPCQPPPQEPCIPKTKEPCHPKVPEPCHPKVPEPCQPKVPEPCHPKVPEPCPSIVTPAPAQQKTKQK
B3: HSD17B4 (protein, UniProt P51659 1-736)
chain: MGSPLRFDGRVVLVTGAGAGLGRAYALAFAERGALVVVNDLGGDFKGVGKGSLAADKVVEEIRRRGGKAVANYDSVEEGEKVVKTALDAFGRIDVVVNNAGILRDRSFARISDEDWDIIHRVHLRGSFQVTRAAWEHMKKQKYGRIIMTSSASGIYGNFGQANYSAAKLGLLGLANSLAIEGRKSNIHCNTIAPNAGSRMTQTVMPEDLVEALKPEYVAPLVLWLCHESCEENGGLFEVGAGWIGKLRWERTLGAIVRQKNHPMTPEAVKANWKKICDFENASKPQSIQESTGSIIEVLSKIDSEGGVSANHTSRATSTATSGFAGAIGQKLPPFSYAYTELEAIMYALGVGASIKDPKDLKFIYEGSSDFSCLPTFGVIIGQKSMMGGGLAEIPGLSINFAKVLHGEQYLELYKPLPRAGKLKCEAVVADVLDKGSGVVIIMDVYSYSEKELICHNQFSLFLVGSGGFGGKRTSDKVKVAVAIPNRPPDAVLTDTTSLNQAALYRLSGDWNPLHIDPNFASLAGFDKPILHGLCTFGFSARRVLQQFADNDVSRFKAIKARFAKPVYPGQTLQTEMWKEGNRIHFQTKVQETGDIVISNAYVDLAPTSGTSAKTPSEGGKLQSTFVFEEIGRRLKDIGPEVVKKVNAVFEWHITKGGNIGAKWTIDLKSGSGKVYQGPAKGAADTTIILSDEDFMEVVLGKLDPQKAFFSGRLKARGNIMLSQKLQMILKDYAKL
B4: TGM3 (protein, UniProt Q08188 1-693)
chain: MAALGVQSINWQTAFNRQAHHTDKFSSQELILRRGQNFQVLMIMNKGLGSNERLEFIVSTGPYPSESAMTKAVFPLSNGSSGGWSAVLQASNGNTLTISISSPASAPIGRYTMALQIFSQGGISSVKLGTFILLFNPWLNVDSVFMGNHAEREEYVQEDAGIIFVGSTNRIGMIGWNFGQFEEDILSICLSILDRSLNFRRDAATDVASRNDPKYVGRVLSAMINSNDDNGVLAGNWSGTYTGGRDPRSWNGSVEILKNWKKSGFSPVRYGQCWVFAGTLNTALRSLGIPSRVITNFNSAHDTDRNLSVDVYYDPMGNPLDKGSDSVWNFHVWNEGWFVRSDLGPSYGGWQVLDATPQERSQGVFQCGPASVIGVREGDVQLNFDMPFIFAEVNADRITWLYDNTTGKQWKNSVNSHTIGRYISTKAVGSNARMDVTDKYKYPEGSDQERQVFQKALGKLKPNTPFAATSSMGLETEEQEPSIIGKLKVAGMLAVGKEVNLVLLLKNLSRDTKTVTVNMTAWTIIYNGTLVHEVWKDSATMSLDPEEEAEHPIKISYAQYEKYLKSDNMIRITAVCKVPDESEVVVERDIILDNPTLTLEVLNEARVRKPVNVQMLFSNPLDEPVRDCVLMVEGSGLLLGNLKIDVPTLGPKEGSRVRFDILPSRSGTKQLLADFSCNKFPAIKAMLSIDVAE
B5: KRT18 (protein, UniProt P05783 1-430)
chain: MSFTTRSTFSTNYRSLGSVQAPSYGARPVSSAASVYAGAGGSGSRISVSRSTSFRGGMGSGGLATGIAGGLAGMGGIQNEKETMQSLNDRLASYLDRVRSLETENRRLESKIREHLEKKGPQVRDWSHYFKIIEDLRAQIFANTVDNARIVLQIDNARLAADDFRVKYETELAMRQSVENDIHGLRKVIDDTNITRLQLETEIEALKEELLFMKKNHEEEVKGLQAQIASSGLTVEVDAPKSQDLAKIMADIRAQYDELARKNREELDKYWSQQIEESTTVVTTQSAEVGAAETTLTELRRTVQSLEIDLDSMRNLKASLENSLREVEARYALQMEQLNGILLHLESELAQTRAEGQRQAQEYEALLNIKVKLEAEIATYRRLLEDGEDFNLGDALDSSNSMQTIQKTTTRRIVDGKVVSETNDTKVLRH

These binders were tested against T1, DDIT4–APEX2 fusion protein (rigid linker) (human) (UniProt Q9NX09) (assay: proximity labelling; DDIT4–APEX2 (rigid linker) expressed in SK-N-SH cells; 1 mM biotin tyramide 45 min at 37 °C with or without 330 μM NaAsO2, 1 mM H2O2 for 1.5 min; biotinylated proteins captured on streptavidin magnetic particles and identified by LC-MS/MS; proteins labelled by APEX2 alone filtered out).
T1 sequence: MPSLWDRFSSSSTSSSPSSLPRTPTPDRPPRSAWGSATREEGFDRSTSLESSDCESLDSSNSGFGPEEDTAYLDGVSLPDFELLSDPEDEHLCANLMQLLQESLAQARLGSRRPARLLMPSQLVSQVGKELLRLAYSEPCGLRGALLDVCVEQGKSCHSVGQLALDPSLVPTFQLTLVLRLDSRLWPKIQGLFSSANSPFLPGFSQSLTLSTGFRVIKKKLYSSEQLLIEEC

binding, binds:
B1
B2
B3
B4
B5

Reference: paper PMC9102673
